The record followed here is doi:10.1101/792994.

Chains of the proteins cited; added tags and fusions are not shown.
UniProt O60573: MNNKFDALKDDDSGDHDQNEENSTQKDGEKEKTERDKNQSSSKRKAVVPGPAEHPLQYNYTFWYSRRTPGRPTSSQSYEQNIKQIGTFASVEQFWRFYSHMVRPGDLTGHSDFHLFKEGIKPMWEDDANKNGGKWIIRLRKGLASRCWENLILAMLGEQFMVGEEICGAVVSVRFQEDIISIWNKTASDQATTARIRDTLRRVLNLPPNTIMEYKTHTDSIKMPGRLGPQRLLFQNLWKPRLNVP

This test addresses T1, FLAG-tagged ZNF598 (human) (UniProt Q86UK7).
T1 sequence: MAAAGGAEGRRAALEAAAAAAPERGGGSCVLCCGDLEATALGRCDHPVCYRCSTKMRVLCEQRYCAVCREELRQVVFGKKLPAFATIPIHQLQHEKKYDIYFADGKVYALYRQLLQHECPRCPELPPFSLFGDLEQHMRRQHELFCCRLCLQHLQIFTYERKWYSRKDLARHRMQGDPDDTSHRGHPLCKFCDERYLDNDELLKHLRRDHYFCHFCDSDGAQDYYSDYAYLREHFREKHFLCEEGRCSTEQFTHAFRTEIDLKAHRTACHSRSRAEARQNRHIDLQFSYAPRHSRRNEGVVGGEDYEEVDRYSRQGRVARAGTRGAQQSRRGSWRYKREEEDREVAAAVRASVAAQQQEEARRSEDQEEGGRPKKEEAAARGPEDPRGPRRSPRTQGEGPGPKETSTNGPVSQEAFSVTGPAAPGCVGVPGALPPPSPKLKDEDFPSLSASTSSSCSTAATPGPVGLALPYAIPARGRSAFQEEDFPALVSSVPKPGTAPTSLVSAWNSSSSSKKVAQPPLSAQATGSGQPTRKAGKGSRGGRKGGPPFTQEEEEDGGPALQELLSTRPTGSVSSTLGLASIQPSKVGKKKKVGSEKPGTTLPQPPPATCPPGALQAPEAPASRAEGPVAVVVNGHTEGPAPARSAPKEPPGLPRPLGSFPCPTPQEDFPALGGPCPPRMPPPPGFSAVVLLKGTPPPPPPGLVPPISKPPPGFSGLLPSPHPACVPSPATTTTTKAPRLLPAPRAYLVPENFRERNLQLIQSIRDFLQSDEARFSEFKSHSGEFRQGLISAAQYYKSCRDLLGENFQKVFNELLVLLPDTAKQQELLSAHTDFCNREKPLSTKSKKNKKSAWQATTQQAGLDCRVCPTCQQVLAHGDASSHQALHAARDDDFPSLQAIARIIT
Nature of the test: affinity purification with mass spectrometry.

No constants are given. Whether binding was seen depends on the method and setting. Binding seen in cells or lysates may run through a third protein. These calls come from enrichment with a bait or labelling near it, and not all partners need be listed. Tags and fused reporters may be left off the sequences shown.

As to 4EHP (from UniProt O60573 1-245), the binding entry was “binds”.

B1: GIGYF2 (protein, UniProt Q6Y7W6 1-1299)
chain: MAAETQTLNFGPEWLRALSSGGSITSPPLSPALPKYKLADYRYGREEMLALFLKDNKIPSDLLDKEFLPILQEEPLPPLALVPFTEEEQRNFSMSVNSAAVLRLTGRGGGGTVVGAPRGRSSSRGRGRGRGECGFYQRSFDEVEGVFGRGGGREMHRSQSWEERGDRRFEKPGRKDVGRPNFEEGGPTSVGRKHEFIRSESENWRIFREEQNGEDEDGGWRLAGSRRDGERWRPHSPDGPRSAGWREHMERRRRFEFDFRDRDDERGYRRVRSGSGSIDDDRDSLPEWCLEDAEEEMGTFDSSGAFLSLKKVQKEPIPEEQEMDFRPVDEGEECSDSEGSHNEEAKEPDKTNKKEGEKTDRVGVEASEETPQTSSSSARPGTPSDHQSQEASQFERKDEPKTEQTEKAEEETRMENSLPAKVPSRGDEMVADVQQPLSQIPSDTASPLLILPPPVPNPSPTLRPVETPVVGAPGMGSVSTEPDDEEGLKHLEQQAEKMVAYLQDSALDDERLASKLQEHRAKGVSIPLMHEAMQKWYYKDPQGEIQGPFNNQEMAEWFQAGYFTMSLLVKRACDESFQPLGDIMKMWGRVPFSPGPAPPPHMGELDQERLTRQQELTALYQMQHLQYQQFLIQQQYAQVLAQQQKAALSSQQQQQLALLLQQFQTLKMRISDQNIIPSVTRSVSVPDTGSIWELQPTASQPTVWEGGSVWDLPLDTTTPGPALEQLQQLEKAKAAKLEQERREAEMRAKREEEERKRQEELRRQQEEILRRQQEEERKRREEEELARRKQEEALRRQREQEIALRRQREEEERQQQEEALRRLEERRREEEERRKQEELLRKQEEEAAKWAREEEEAQRRLEENRLRMEEEAARLRHEEEERKRKELEVQRQKELMRQRQQQQEALRRLQQQQQQQQLAQMKLPSSSTWGQQSNTTACQSQATLSLAEIQKLEEERERQLREEQRRQQRELMKALQQQQQQQQQKLSGWGNVSKPSGTTKSLLEIQQEEARQMQKQQQQQQQHQQPNRARNNTHSNLHTSIGNSVWGSINTGPPNQWASDLVSSIWSNADTKNSNMGFWDDAVKEVGPRNSTNKNKNNASLSKSVGVSNRQNKKVEEEEKLLKLFQGVNKAQDGFTQWCEQMLHALNTANNLDVPTFVSFLKEVESPYEVHDYIRAYLGDTSEAKEFAKQFLERRAKQKANQQRQQQQLPQQQQQQPPQQPPQQPQQQDSVWGMNHSTLHSVFQTNQSNNQQSNFEAVQSGKKKKKQKMVRADPSLLGFSVNASSERLNMGEIETLDDY
Consider B1, for which the binding entry is “binds”.
